According to patent US12495798B2, “Nicotinamide compound and herbicidal composition comprising compound” (KOREA RESEARCH INSTITUTE OF CHEMICAL TECHNOLOGY, priority 2019, dated 2025):

System: crabgrass
Assay: Herbicidal activity test against upland field weeds (foliar treatment test)
Format: in vivo
Parameters: key: B; Stunting; C; Desiccation; I; Chlorosis; N; Bleaching
Settings: 50 g ai/ha, symptom letters
Protocol: (§1) Experimental Example 1: Herbicidal Activity Test Against Upland Field Weeds (Foliar Treatment Test) Foliar treatment was performed as follows: After filling a square plastic pot having a surface area of 350 cm^2 with horticultural soil, seeds (10˜15 grains) or rootstocks (2 pieces) of 5 kinds of grassy weeds of sorghum, barnyard grass, quack grass, crabgrass, fall panicum, and 5 kinds of broadleaf weeds of black nightshade, indian jointvetch, velvetleaf, cocklebur, bindweed, which had been stored in a low temperature (6° C.), were sown. After growing for a certain period in greenhouse conditions (average temperature 30±5° C., light/dark=14/10 hours), test compound solutions were made by diluting with a preparation solution (including 50% acetone, 0.1% Tween-20) so that the final treatment amount of the test compounds was 50 or 75 g a.i./ha. The prepared test compound solution was used for treating foliage by hand-spraying 14 mL per pot in a fume hood. After the treatment, it was managed under the same greenhouse conditions as above, and after 14 days (after 21 days if necessary), the external symptoms and efficacy were investigated according to the scale of 0 (no control) to 100 (complete control). The results of Table 7 were obtained by evaluating weed control value to the untreated control by conducting visual assessment.

SMILES	External symptoms, Crabgrass
CN(Cc1nnn(C)n1)Cc1nc(C(F)(F)F)ccc1C(=O)Nc1nnnn1C [Compound No. 2-93, 2-((methyl((2-methyl-2H-tetrazol-5-yl)methyl)amino)methyl)-N-(1-methyl-1H-tetrazol-5-yl)-6-(trifluoromethyl)nicotinamide]	N

System: sorghum
Assay: as above
Format: in vivo
Parameters: key: B; Stunting; C; Desiccation; I; Chlorosis; N; Bleaching
Settings: 50 g ai/ha, symptom letters
Protocol: as §1

SMILES	External symptoms, Sorghum
Cn1nnc(COCc2nc(C(F)(F)Cl)ccc2C(=O)Nc2nnnn2C)n1 [Compound No. 2-78, 6-(chlorodifluoromethyl)-N-(1-methyl-1H-tetrazol-5-yl)-2-(((2-methyl-2H-tetrazol-5-yl)methoxy)methyl)nicotinamide]	N

System: quack grass
Assay: as above
Format: in vivo
Parameters: key: B; Stunting; C; Desiccation; I; Chlorosis; N; Bleaching
Settings: 50 g ai/ha, symptom letters
Protocol: as §1

SMILES	External symptoms, quack grass
CN(Cc1nnnn1C)c1nc(C(F)(F)F)ccc1C(=O)Nc1nnnn1C [Compound No. 1-27, 2-(methyl((1-methyl-1H-tetrazol-5-yl)methyl)amino)-N-(1-methyl-1H-tetrazol-5-yl)-6-(trifluoromethyl)nicotinamide]	C
Cn1nnnc1COc1nc(C(F)(F)F)ccc1C(=S)Nc1nnnn1C [Compound No. 1-43, N-(1-methyl-1H-tetrazol-5-yl)-2-((1-methyl-1H-tetrazol-5-yl)methoxy)-6-(trifluoromethyl)pyridin-3-carbothioamide]	N
Cn1ncnc1COc1nc(C(F)(F)F)ccc1C(=O)Nc1nnnn1C [Compound No. 1-45, 2-((1-methyl-1H-1,2,4-triazol-5-yl)methoxy)-N-(1-methyl-1H-tetrazol-5-yl)-6-(trifluoromethyl)nicotinamide]	N
Cn1nnc(C[S+]([O-])Cc2nc(C(F)(F)F)ccc2C(=O)Nc2nnnn2C)n1 (centres unmarked) [Compound No. 2-104, N-(1-methyl-1H-tetrazol-5-yl)-2-((((2-methyl-2H-tetrazol-5-yl)methyl)sulfinyl)methyl)-6-(trifluoromethyl)nicotinamide]	N

System: fall panicum
Assay: as above
Format: in vivo
Parameters: key: B; Stunting; C; Desiccation; I; Chlorosis; N; Bleaching
Settings: 50 g ai/ha, symptom letters
Protocol: as §1

SMILES	External symptoms, Fall panicum
C=Cc1nc(COCc2nc(C(F)(F)F)ccc2C(=O)Nc2nnnn2C)nn1C [Compound No. 2-127, N-(1-methyl-1H-tetrazol-5-yl)-2-(((1-methyl-5-vinyl-1H-1,2,4-triazol-3-yl)methoxy)methyl)-6-(trifluoromethyl)nicotinamide]	B

System: bindweed
Assay: as above
Format: in vivo
Parameters: key: B; Stunting; C; Desiccation; I; Chlorosis; N; Bleaching
Settings: 50 g ai/ha, symptom letters
Protocol: as §1

SMILES	External symptoms, Bindweed
Cn1nnnc1NC(=O)c1ccc(C(F)(F)F)nc1COCc1nnnn1C(F)F [Compound No. 1-85, 2-(((1-(difluoromethyl)-1H-tetrazol-5-yl)methoxy)methyl)-N-(1-methyl-1H-tetrazol-5-yl)-6-(trifluoromethyl)nicotinamide]	N
Cn1cnc(COc2nc(C(F)(F)F)ccc2C(=O)Nc2nnnn2C)n1 [Compound No. 2-43, 2-((1-methyl-1H-1,2,4-triazol-3-yl)methoxy)-N-(1-methyl-1H-tetrazol-5-yl)-6-(trifluoromethyl)nicotinamide]	I
CC(=O)N(C(=O)c1ccc(C(F)(F)F)nc1COCc1nnn(C)n1)c1nnnn1C [Compound No. 2-67, N-acetyl-N-(1-methyl-1H-tetrazol-5-yl)-2-(((2-methyl-2H-tetrazol-5-yl)methoxy)methyl)-6-(trifluoromethyl)nicotinamide]	N
Cn1nnc(COCc2nc(C(F)(F)F)ccc2C(=O)N(c2nnnn2C)S(C)(=O)=O)n1 [Compound No. 2-69, N-(1-methyl-1H-tetrazol-5-yl)-2-(((2-methyl-2H-tetrazol-5-yl)methoxy)methyl)-N-(methylsulfonyl)-6-(trifluoromethyl)nicotinamide]	N
CON(Cc1nnn(C)n1)Cc1nc(C(F)(F)Cl)ccc1C(=O)Nc1nnnn1C [Compound No. 2-79, 6-(chlorodifluoromethyl)-2-((methoxy((2-methyl-2H-tetrazol-5-yl)methyl)amino)methyl)-N-(1-methyl-1H-tetrazol-5-yl)nicotinamide]	N
CCN(Cc1nnn(C)n1)Cc1nc(C(F)(F)F)ccc1C(=O)Nc1nnnn1C [Compound No. 2-94, 2-((ethyl((2-methyl-2H-tetrazol-5-yl)methyl)amino)methyl)-N-(1-methyl-1H-tetrazol-5-yl)-6-(trifluoromethyl)nicotinamide]	N
Cn1nnc(COCc2nc(C(F)(F)F)ccc2C(=S)Nc2nnnn2C)n1 [Compound No. 2-106, N-(1-methyl-1H-tetrazol-5-yl)-2-(((2-methyl-2H-tetrazol-5-yl)methoxy)methyl)-6-(trifluoromethyl)pyridin-3-carbothioamide]	N
CCCn1nnnc1NC(=O)c1ccc(C(F)(F)F)nc1COCc1nc(C(F)(F)F)n(C)n1 [Compound No. 2-120, 2-(((1-methyl-5-(trifluoromethyl)-1H-1,2,4-triazol-3-yl)methoxy)methyl)-N-(1-propyl-1H-tetrazol-5-yl)-6-(trifluoromethyl)nicotinamide]	N
C=CCn1nnnc1NC(=O)c1ccc(C(F)(F)F)nc1COCc1nc(C(F)(F)F)n(C)n1 [Compound No. 2-121, N-(1-allyl-1H-tetrazol-5-yl)-2-(((1-methyl-5-(trifluoromethyl)-1H-1,2,4-triazol-3-yl)methoxy)methyl)-6-(trifluoromethyl)nicotinamide]	N
C=Cc1nc(COCc2nc(C(F)(F)F)ccc2C(=O)Nc2nnnn2C)nn1C [Compound No. 2-127, N-(1-methyl-1H-tetrazol-5-yl)-2-(((1-methyl-5-vinyl-1H-1,2,4-triazol-3-yl)methoxy)methyl)-6-(trifluoromethyl)nicotinamide]	N
C=C(C)c1nc(COCc2nc(C(F)(F)F)ccc2C(=O)Nc2nnnn2C)nn1C [Compound No. 2-128, N-(1-methyl-1H-tetrazol-5-yl)-2-(((1-methyl-5-(prop-1-en-2-yl)-1H-1,2,4-triazol-3-yl)methoxy)methyl)-6-(trifluoromethyl)nicotinamide]	N
COc1nc(COCc2nc(C(F)(F)F)ccc2C(=O)Nc2nnnn2C)nn1C [Compound No. 2-129, 2-(((5-methoxy-1-methyl-1H-1,2,4-triazol-3-yl)methoxy)methyl)-N-(1-methyl-1H-tetrazol-5-yl)-6-(trifluoromethyl)nicotinamide]	N
Cn1nc(COCc2nc(C(F)(F)F)ccc2C(=O)Nc2nnnn2C)nc1Br [Compound No. 2-136, 2-(((5-bromo-1-methyl-1H-1,2,4-triazol-3-yl)methoxy)methyl)-N-(1-methyl-1H-tetrazol-5-yl)-6-(trifluoromethyl)nicotinamide]	N
